Measurements: publication PMC4179493
Results are given in words; binding and its absence hold for the method and conditions named. In cells and extracts the contact can be indirect. These calls come from enrichment with a bait or labelling near it, and not all partners need be listed.

Molecular target: GFP–RCC2 (UniProt Q9P258)
Assay: affinity purification with mass spectrometry; SILAC: HEK-293T cells in R0K0 (GFP) or R6K4 (GFP–RCC2) media, GFP-Trap, LTQ-Orbitrap Velos

binding: binds
Substance: endogenous Coro1C (293T) (from UniProt Q9ULV4 1-474)
